Measurements reported in PubChem BioAssay AID602196 (INSERM, 2012)
This is a random part of about 23,000 deposited reagents. 455 of them (2%) were called active. 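Active includes both protection and sensitisation; some change values fall well beyond the stated -50 to +50 range.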 A number with no mark means an inactive call. Not all columns of the deposit are shown. Reagent sequences are not shown. Not given: the amount of reagent.

Assay: 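Knock-downs that protect lung cancer cells from cisplatin or sensitise them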
Cell system: human A549 lung cancer cells
Reagent: siRNA pair against human genes
Time to read-out: 48 h transfection before cisplatin; time from cisplatin to read-out not stated
Challenge: cisplatin at a dose killing half of control-siRNA cells; exact dose and duration not given
Measured: 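Cisplatin cell death as a shift from the 50% death seen with control siRNA; siRNAs toxic or growth-blocking alone scored 0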
Direction: two-siRNA summed score (-2 to +2): higher = both siRNAs protect from cisplatin killing; -2 means both sensitise
Rule for the call: 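Each siRNA scores 0 if harmful alone by LDH or WST-1, otherwise +1 if it reduces and -1 if it increases cisplatin killing; a gene is active when both siRNAs agree (sum +2 or -2)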
Calls: active = both siRNAs shift cisplatin killing the same way; inactive = no consistent shift, or siRNA harmful alone

ATP6V0E2 | two-siRNA summed score (-2 to +2) = -1
PCMT1 | two-siRNA summed score (-2 to +2) = 0
MSN | two-siRNA summed score (-2 to +2) = 0
ABTB1 | two-siRNA summed score (-2 to +2) = 0
LOC440785 | two-siRNA summed score (-2 to +2) = 0

As entered above:
PCMT1, two-siRNA summed score (-2 to +2): 0
ATP6V0E2, two-siRNA summed score (-2 to +2) → -1

The results go on:
NXN | two-siRNA summed score (-2 to +2) = 1
ARFGAP3 | two-siRNA summed score (-2 to +2) = 0
JMJD8 | two-siRNA summed score (-2 to +2) = 0
EPHB4 | two-siRNA summed score (-2 to +2) = -2 (active)
PITX2 | two-siRNA summed score (-2 to +2) = 1
SRPK3 | two-siRNA summed score (-2 to +2) = 1
SH3GLB2 | two-siRNA summed score (-2 to +2) = 0
